# Source: paper PMC12983349
# Amino acid sequences for entries named in this document (tags omitted).
# UniProt Q91VH2: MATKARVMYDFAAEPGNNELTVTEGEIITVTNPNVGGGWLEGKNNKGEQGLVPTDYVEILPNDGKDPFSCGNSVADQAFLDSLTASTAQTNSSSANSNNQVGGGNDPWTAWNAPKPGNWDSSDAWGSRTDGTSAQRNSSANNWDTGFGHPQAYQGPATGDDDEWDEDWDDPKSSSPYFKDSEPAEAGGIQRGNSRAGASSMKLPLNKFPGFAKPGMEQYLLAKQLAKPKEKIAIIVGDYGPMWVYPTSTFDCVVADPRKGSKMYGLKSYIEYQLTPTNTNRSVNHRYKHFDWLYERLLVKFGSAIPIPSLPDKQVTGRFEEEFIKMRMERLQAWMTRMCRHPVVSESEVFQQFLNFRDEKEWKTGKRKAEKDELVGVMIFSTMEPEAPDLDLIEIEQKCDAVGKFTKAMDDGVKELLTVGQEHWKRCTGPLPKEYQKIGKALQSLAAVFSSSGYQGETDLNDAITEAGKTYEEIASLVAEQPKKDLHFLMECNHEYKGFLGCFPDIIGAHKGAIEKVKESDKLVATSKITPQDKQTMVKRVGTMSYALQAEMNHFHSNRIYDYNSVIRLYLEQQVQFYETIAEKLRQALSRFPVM
# UniProt Q99020: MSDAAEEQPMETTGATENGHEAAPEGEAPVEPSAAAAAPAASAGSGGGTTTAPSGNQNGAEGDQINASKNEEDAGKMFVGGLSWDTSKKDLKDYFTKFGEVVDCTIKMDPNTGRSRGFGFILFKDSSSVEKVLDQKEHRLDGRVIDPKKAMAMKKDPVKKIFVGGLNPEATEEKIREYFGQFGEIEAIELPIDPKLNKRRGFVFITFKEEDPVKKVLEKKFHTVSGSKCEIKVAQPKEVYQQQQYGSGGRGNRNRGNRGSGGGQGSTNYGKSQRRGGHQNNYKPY
# UniProt Q91WJ8: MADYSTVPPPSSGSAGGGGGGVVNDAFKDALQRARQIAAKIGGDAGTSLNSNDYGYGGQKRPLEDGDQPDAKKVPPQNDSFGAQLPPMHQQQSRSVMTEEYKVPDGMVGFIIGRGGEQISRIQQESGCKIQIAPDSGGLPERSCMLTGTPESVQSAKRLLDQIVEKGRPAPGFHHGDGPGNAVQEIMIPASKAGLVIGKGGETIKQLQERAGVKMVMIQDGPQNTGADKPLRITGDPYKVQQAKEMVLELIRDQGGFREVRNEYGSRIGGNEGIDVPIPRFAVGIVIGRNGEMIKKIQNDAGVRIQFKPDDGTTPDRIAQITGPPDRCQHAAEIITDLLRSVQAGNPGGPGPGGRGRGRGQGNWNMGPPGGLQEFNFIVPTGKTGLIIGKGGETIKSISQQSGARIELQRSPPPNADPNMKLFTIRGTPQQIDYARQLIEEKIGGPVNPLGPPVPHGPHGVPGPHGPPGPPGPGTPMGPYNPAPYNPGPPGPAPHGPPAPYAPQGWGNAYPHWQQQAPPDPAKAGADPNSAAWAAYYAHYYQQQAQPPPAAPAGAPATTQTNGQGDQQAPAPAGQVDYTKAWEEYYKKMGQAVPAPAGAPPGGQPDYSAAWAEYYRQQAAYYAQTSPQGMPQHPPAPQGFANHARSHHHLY
# UniProt Q64430: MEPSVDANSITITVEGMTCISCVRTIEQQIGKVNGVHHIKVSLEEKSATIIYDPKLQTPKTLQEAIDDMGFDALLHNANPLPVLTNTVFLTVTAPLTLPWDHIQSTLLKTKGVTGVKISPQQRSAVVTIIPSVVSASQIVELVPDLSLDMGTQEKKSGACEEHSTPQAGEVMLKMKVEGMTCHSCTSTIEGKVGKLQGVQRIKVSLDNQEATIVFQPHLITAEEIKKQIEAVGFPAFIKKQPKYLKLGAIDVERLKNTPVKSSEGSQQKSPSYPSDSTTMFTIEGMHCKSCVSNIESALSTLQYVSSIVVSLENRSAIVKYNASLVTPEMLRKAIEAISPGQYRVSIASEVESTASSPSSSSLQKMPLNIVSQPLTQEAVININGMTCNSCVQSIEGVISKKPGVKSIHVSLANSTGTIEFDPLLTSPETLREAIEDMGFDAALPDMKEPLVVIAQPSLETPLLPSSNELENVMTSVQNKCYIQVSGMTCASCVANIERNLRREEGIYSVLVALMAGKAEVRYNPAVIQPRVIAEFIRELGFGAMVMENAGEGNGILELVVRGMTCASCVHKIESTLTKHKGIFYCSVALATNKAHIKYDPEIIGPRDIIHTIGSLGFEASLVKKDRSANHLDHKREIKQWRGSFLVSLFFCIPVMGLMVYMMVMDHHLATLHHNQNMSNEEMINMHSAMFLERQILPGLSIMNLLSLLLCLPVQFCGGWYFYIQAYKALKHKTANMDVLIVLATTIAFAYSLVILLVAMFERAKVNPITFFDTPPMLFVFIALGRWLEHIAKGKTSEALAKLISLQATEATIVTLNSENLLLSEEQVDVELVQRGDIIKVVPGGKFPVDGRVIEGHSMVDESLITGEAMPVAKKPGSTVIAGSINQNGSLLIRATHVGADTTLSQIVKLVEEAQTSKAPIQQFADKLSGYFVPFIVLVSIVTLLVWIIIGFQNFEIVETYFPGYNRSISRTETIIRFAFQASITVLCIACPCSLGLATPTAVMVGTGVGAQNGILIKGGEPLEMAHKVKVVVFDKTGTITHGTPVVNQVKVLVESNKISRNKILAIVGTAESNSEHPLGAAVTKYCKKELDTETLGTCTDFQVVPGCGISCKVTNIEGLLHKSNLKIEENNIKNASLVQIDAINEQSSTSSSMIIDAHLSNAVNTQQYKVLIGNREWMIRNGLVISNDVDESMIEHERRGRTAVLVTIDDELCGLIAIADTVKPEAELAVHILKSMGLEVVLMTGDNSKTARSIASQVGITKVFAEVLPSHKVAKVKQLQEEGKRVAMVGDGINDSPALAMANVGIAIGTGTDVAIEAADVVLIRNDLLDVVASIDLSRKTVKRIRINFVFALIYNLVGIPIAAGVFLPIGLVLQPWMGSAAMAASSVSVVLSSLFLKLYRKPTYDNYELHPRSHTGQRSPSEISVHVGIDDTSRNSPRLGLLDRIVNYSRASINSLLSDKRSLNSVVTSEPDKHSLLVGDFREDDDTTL
# Results are given in words; binding and its absence hold for the method and conditions named. Binding seen in cells or lysates may run through a third protein. Here binding means that the protein was enriched with, or labelled near, the bait; the list need not be complete. Tags and fused reporters may be left off the sequences shown.
# T1: APEX2-ATOX1 fusion construct (3x Flag-APEX2-3x Myc-human ATOX1) (human) (UniProt O00244)
# T1 sequence: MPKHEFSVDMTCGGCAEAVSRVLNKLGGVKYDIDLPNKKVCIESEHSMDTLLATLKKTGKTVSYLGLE
# Target: T1, APEX2-ATOX1 fusion construct (3x Flag-APEX2-3x Myc-human ATOX1) (human)
# Experiment: proximity labelling; APEX2-ATOX1 induced with doxycycline (2.5 ug/mL) in stable C2C12 myoblasts, myocytes and myotubes; 2.5 mM biotin-phenol, 0.75 mM H2O2 for 1 min; streptavidin agarose capture from RIPA lysates; label-free nanoLC-MS/MS, three replicates per state; cells without biotin phenol as negative control
row,Molecule,binding
1,"SCAMP3 (protein, UniProt O35609 1-349) MAQSRDTGNPFPDSGELDNPFQDPAVIQHRPSQQYATLDVYNPFENREPPPAYEPPAPAPAPLPPPSAPSVQSSRKLSPTEPRNYGSYSTQASAAAATAELLKKQEELNRKAEELDRRERELQHVALGGAGTRQNNWPPLPSFCPVKPCFFQDISMEIPQEFQKTVSTMYYLWMCSTLALLLNFFACLARFCVDTGSGSGFGLSMLWLLLFTPCSFVCWYRPMYKAFRSDSSFNFFVFFFIFFVQDVFFVLQAIGIPGWGFSGWVTALVVVGSKPAVAVLMLLVALLFTGIAVLGIVMLKRIHSLYRQTGASFQKAQQEFAAGVFSNPAVRTAAANAAAGAAENAFRAP",binds
2,"cysteine rich intestinal protein 2 (CRIP2) (protein, UniProt Q9DCT8 1-208) MASKCPKCDKTVYFAEKVSSLGKDWHKFCLKCERCNKTLTPGGHAEHDGKPFCHKPCYATLFGPKGVNIGGAGSYIYEKPQTEAPQVTGPIEVPVVRTEERKTSGPPKGPSKASSVTTFTGEPNMCPRCNKRVYFAEKVTSLGKDWHRPCLRCERCSKTLTPGGHAEHDGQPYCHKPCYGILFGPKGVNTGAVGSYIYDKDPEGTVQP",binds
3,"ERBB receptor feedback inhibitor 1 (ERRFI1) (protein, UniProt Q99JZ7 1-461) MSTAGVAAQDIRVPLKTGFLHNGQALGNMKSCWGSHSEFENNFLNIDPITMAYNLNSPAQEHLTTVGCAARSAPGSGHFFAECGPSPRSSLPPLVISPSESSGQREEDQVMCGFKKLSVNGVCTSTPPLTPIKSCPSPFPCAALCDRGSRPLPPLPISEDLCVDEADSEVELLTTSSDTDLLLEDSAPSDFKYDAPGRRSFRGCGQINYAYFDSPTVSVADLSCASDQNRVVPDPNPPPPQSHRRLRRSHSGPAGSFNKPAIRISSCTHRASPSSDEDKPEVPPRVPIPPRPAKPDYRRWSAEVTSNTYSDEDRPPKVPPREPLSRSNSRTPSPKSLPSYLNGVMPPTQSFAPDPKYVSSKALQRQSSEGSANKVPCILPIIENGKKVSSTHYYLLPERPPYLDKYEKYFKEAEETNPSTQIQPLPAACGMASATEKLASRMKIDMGSHGKRKHLSYVVSP",binds
4,"transforming growth factor beta regulator 1 (TBRG1) (protein, UniProt Q3UB74 1-406) MSVLSGLASEPRTPLSSKARMKRLPRKSQNEKYRLKYLRLRRAAKATVFENASICDEIARLEEKFLKAKEERRYLLKKLLQIHALTEGEPQAAAPSHSSSLPLPYGVTSSVGTMQGAGPSTGAEEPFAKKSKKEKKEKGKENSKLEVLKKTSKKKKMEGGARKLVRPIALDPSGQPVFPIGLGGLTVYSLGEIITNRPGFHDENAIYPVGYCSTRVYASMKCPDQKCLYTCQIKDGGVQPQFEIVPEDDPQNTIVGSSADACYEELLRAISATTGKLMPNPLSCGADFFGFSHPTIHNLIQSCPEAQNCVNYQWVKFDACKPRKGQLSQELPENDATMSLEAFQTQTFDDDHDDSILPGSLDLPELQHEAFVSSYQPEFLTHEPLVDTDLQHLKSPSQCSPIQSSD",binds
5,"SYNCRIP/HNRNPQ (protein, UniProt Q7TMK9 1-623) MATEHVNGNGTEEPMDTTSAVIHSENFQTLLDAGLPQKVAEKLDEIYVAGLVAHSDLDERAIEALKEFNEDGALAVLQQFKDSDLSHVQNKSAFLCGVMKTYRQREKQGTKVADSSKGPDEAKIKALLERTGYTLDVTTGQRKYGGPPPDSVYSGQQPSVGTEIFVGKIPRDLFEDELVPLFEKAGPIWDLRLMMDPLTGLNRGYAFVTFCTKEAAQEAVKLYNNHEIRSGKHIGVCISVANNRLFVGSIPKSKTKEQILEEFSKVTEGLTDVILYHQPDDKKKNRGFCFLEYEDHKTAAQARRRLMSGKVKVWGNVGTVEWADPIEDPDPEVMAKVKVLFVRNLANTVTEEILEKSFSQFGKLERVKKLKDYAFIHFDERDGAVKAMEEMNGKDLEGENIEIVFAKPPDQKRKERKAQRQAAKNQMYDDYYYYGPPHMPPPTRGRGRGGRGGYGYPPDYYGYEDYYDYYGYDYHNYRGGYEDPYYGYEDFQVGARGRGGRGARGAAPSRGRGAAPPRGRAGYSQRGGPGSARGVRGARGGAQQQRGRGVRGARGGRGGNVGGKRKADGYNQPDTKRRQTNNQNWGSQPIAQQPLQGGDHSGNYGYKSENQEFYQDTFGQQWK",binds

# Target: T1, APEX2-ATOX1 fusion construct (3x Flag-APEX2-3x Myc-human ATOX1) (human)
# Experiment: proximity labelling; APEX2-ATOX1 in stable C2C12 myoblasts, myocytes and myotubes, biotin-phenol labelling; independent streptavidin bead eluates probed by immunoblot; cells without biotin phenol as negative control
row,Molecule,binding
1,dual specificity mitogen-activated protein kinase kinase 2 (MEK2) (from UniProt Q63932 1-401) (enzyme),binds
2,"cysteine rich intestinal protein 2 (CRIP2) (protein, UniProt Q9DCT8 1-208) MASKCPKCDKTVYFAEKVSSLGKDWHKFCLKCERCNKTLTPGGHAEHDGKPFCHKPCYATLFGPKGVNIGGAGSYIYEKPQTEAPQVTGPIEVPVVRTEERKTSGPPKGPSKASSVTTFTGEPNMCPRCNKRVYFAEKVTSLGKDWHRPCLRCERCSKTLTPGGHAEHDGQPYCHKPCYGILFGPKGVNTGAVGSYIYDKDPEGTVQP",binds

# Target: T1, APEX2-ATOX1 fusion construct (3x Flag-APEX2-3x Myc-human ATOX1) (human)
# Experiment: proximity labelling; APEX2-ATOX1 induced with doxycycline (2.5 ug/mL) in stable C2C12 myoblasts, myocytes and myotubes; 2.5 mM biotin-phenol, 0.75 mM H2O2 for 1 min; streptavidin agarose capture from RIPA lysates; label-free nanoLC-MS/MS, three replicates per state; cells without biotin phenol as negative control
# Remark: another data set of the same source
row,Molecule,binding
1,SNX9 (from UniProt Q91VH2 1-595),binds
2,HNRNPAB (from UniProt Q99020 1-285),binds
3,dual specificity mitogen-activated protein kinase kinase 2 (MEK2) (from UniProt Q63932 1-401) (enzyme),binds
4,FUBP1 (from UniProt Q91WJ8 1-651),binds

# Target: T1, APEX2-ATOX1 fusion construct (3x Flag-APEX2-3x Myc-human ATOX1) (human)
# Experiment: proximity labelling; as the immunoblot of streptavidin eluates, but elution with urea containing buffer without boiling; myoblasts, myocytes and myotubes; cells without biotin phenol as negative control
row,Molecule,binding
1,copper exporter ATP7A (from UniProt Q64430 1-1491),binds
